Where a name gives a salt, the structure may show the parent alone. ± gives the standard deviation of the averaged measurements. Some of the results follow. Single values are uncertain here, since repeats match poorly.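 Cells were counted by imaging DAPI-stained nuclei, and cells lacking phalloidin-stained cytoplasm were excluded as dead. Each well's count was divided by the median count of the vehicle wells on the same plate, and values were averaged over two replicate plates.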

This assay deals with OVCAR8. The assay is described as follows: cell count relative to DMSO vehicle (fold change); higher = more surviving senescent cells (less killing). The settings on record: senescence inducer: cisplatin 10 µM 48 h, then 6 d recovery (CP senescent), exposure time 24 h.

As to `Cc1sc2c(c1C)C(c1ccc(Cl)cc1)=N[C@@H](CC(N)=O)c1nnc(C)n1-2`, the cell count was 0.55 ± 0.15 (compound dose 1 µM) and 0.565 ± 0.091 (compound dose 5 µM).
Turning to `COC1=C[C@@H]2[C@@H]3Cc4ccc(OC)c(O)c4[C@]2(CCN3C)CC1=O` [Sinomenine hydrochloride], the cell count reads like this: (compound dose 1 µM) 1.11 ± 0.076; (compound dose 5 µM) 1.1 ± 0.19.
For `COC1=C[C@@H]2[C@@H]3Cc4ccc(OC)c(O)c4[C@]2(CCN3C)CC1=O`, in that order: 0.981 ± 0.0028 and 0.97 ± 0.028.
For `C/C(=C\c1csc(C)n1)[C@@H]1C[C@@H]2O[C@@H]2CCC[C@H](C)[C@H](O)[C@@H](C)C(=O)C(C)(C)[C@@H](O)CC(=O)O1` [Epothilone A], in that order: 1.02 ± 0.26 and 1.05 ± 0.086.
For `CCOC1c2c(ccc3c2OCO3)-c2ccc3cc4c(cc3c2N1C)OCO4` (centres undefined) [Ethoxysanguinarine], in that order: 0.084 ± 0.024 and 0.0945 ± 0.029.
`C=CC(=O)N[C@H]1C=C(C)c2c(-c3cnc4ccccc4c3)c3c(N)ncnc3n2C1`: the cell count is, setting by setting: (compound dose 1 µM) 0.9095 ± 0.0064; (compound dose 5 µM) 0.781 ± 0.032.
As for `O=C(c1ccccc1O)c1[nH]c(Cl)c(Cl)c1-n1c(C(=O)c2ccccc2O)cc(Cl)c1Cl` [Maritoclax], the cell count reads like this: (compound dose 1 µM) 1.08 ± 0.12; (compound dose 5 µM) 0.814 ± 0.059.
For `CC(C)[C@]12O[C@H]1[C@@H]1O[C@]13[C@]1(O[C@H]1C[C@H]1C4=C(CC[C@@]13C)C(=O)OC4)[C@@H]2O` [Triptolide], in that order: 0.503 ± 0.0042 and 0.475 ± 0.061.
With `CC(C)(C)c1cc(C=C(C#N)C#N)cc(Br)c1O`, the cell count runs as follows: (compound dose 1 µM) 1.02 ± 0.067; (compound dose 5 µM) 1.03 ± 0.052.
For `CC(C)=CCC[C@](C)(O)[C@H]1CC[C@]2(C)[C@@H]1[C@H](O)C[C@@H]1[C@@]3(C)CC[C@H](O[C@@H]4O[C@H](CO)[C@@H](O)[C@H](O)[C@H]4O)C(C)(C)[C@@H]3CC[C@]12C` [Ginsenoside Rh2], in that order: 0.953 ± 0.12 and 0.824 ± 0.0085.
For `COc1cc(C(=O)O[C@H]2[C@@H]3C=CO[C@@H](O[C@@H]4O[C@H](CO)[C@@H](O)[C@H](O)[C@H]4O)[C@@H]3[C@@]3(CO)O[C@@H]23)ccc1O` [Picroside II], in that order: 0.83 ± 0.09 and 0.853 ± 0.1.
For `Cn1c(CCCC(=O)O)nc2cc(N(CCCl)CCCl)ccc21` [Bendamustine (hydrochloride)], in that order: 0.988 ± 0.075 and 0.691 ± 0.081.
For `CC(=O)O[C@H]1C[C@]2(O)[C@@H]3CC[C@@H]4C[C@@H](O)CC[C@]4(C)[C@H]3CC[C@]2(C)[C@H]1c1ccc(=O)oc1` [Bufotalin], the cell count by setting is: (compound dose 1 µM) 0.019 ± 0.0014; (compound dose 5 µM) 0.022 ± 0.0028.
The matching figures for `CN1Cc2c(ccc3c2OCO3)[C@@H]2[C@H]1c1cc3c(cc1C[C@@H]2O)OCO3` [Chelidonine]: 0.908 ± 0.062 and 0.661 ± 0.067.
For `O=C1C=CC[C@@H]2[C@H]3CCCN4CCC[C@@H](CN12)[C@@H]34` [Sophocarpine], in that order: 1.01 ± 0.094 and 1.08 ± 0.42.
The matching figures for `O=C(O)C(=O)c1cn(Cc2ccccc2)c2ccc(-c3ccc(OC(F)(F)F)cc3)cc12` [Tiplaxtinin]: 1.2 ± 0.12 and 1.09 ± 0.018.
Regarding `COc1cc2c3cc1Oc1c(OC)c(OC)cc4c1[C@@H](Cc1cccc(c1)Oc1ccc(c(O)c1)C[C@@H]3N(C)CC2)N(C)CC4`, the cell count is 1.12 ± 0.057 (compound dose 1 µM) and 1.24 ± 0.24 (compound dose 5 µM).
For `CC[C@@H](C(=O)[C@@H](C)[C@@H](O)[C@H](C)[C@@H]1O[C@@H]([C@@H](CC)C(=O)O)CC[C@@H]1C)[C@H]1O[C@]2(C=C[C@@H](O)[C@]3(CC[C@@](C)([C@H]4CC[C@](O)(CC)[C@H](C)O4)O3)O2)[C@H](C)C[C@@H]1C` [Salinomycin], in that order: 0.905 ± 0.12 and 0.917 ± 0.5.
As to `CC[C@@H](C(=O)[C@@H](C)[C@@H](O)[C@H](C)[C@@H]1O[C@@H]([C@@H](CC)C(=O)O)CC[C@@H]1C)[C@H]1O[C@]2(C=C[C@@H](O)[C@]3(CC[C@@](C)([C@H]4CC[C@](O)(CC)[C@H](C)O4)O3)O2)[C@H](C)C[C@@H]1C` [Salinomycin (sodium salt)], the cell count worked out at 0.719 ± 0.06 (compound dose 1 µM) and 1.03 ± 0.028 (compound dose 5 µM).
As to `OC(Cc1ccncc1)C(Cl)(Cl)Cl` (centres undefined), the cell count reads like this: (compound dose 1 µM) 1.05 ± 0.061; (compound dose 5 µM) 1.18 ± 0.025.
For `S=C=NCc1ccccc1`, in that order: 0.803 ± 0.22 and 0.955 ± 0.15.
As for `C[C@@H]1CC[C@@]2(OC1)O[C@H]1C[C@H]3[C@@H]4CC=C5C[C@@H](O[C@@H]6O[C@H](CO)[C@@H](O[C@@H]7O[C@@H](C)[C@H](O)[C@@H](O)[C@H]7O)[C@H](O)[C@H]6O[C@@H]6O[C@@H](C)[C@H](O)[C@@H](O)[C@H]6O)CC[C@]5(C)[C@H]4CC[C@]3(C)[C@H]1[C@@H]2C` [Dioscin], the cell count by setting is: (compound dose 1 µM) 1.16 ± 0.19; (compound dose 5 µM) 0.216 ± 0.048.
For `Cn1cc(C2=C(c3cn(C4CCN(Cc5ccccn5)CC4)c4ccccc34)C(=O)NC2=O)c2ccccc21`, in that order: 1.07 ± 0.02 and 1.25 ± 0.12.
In the case of `CC(C)=CCCC(C)(O)C1CCC2(C)C1C(O)CC1C3(C)CCC(OC4OC(CO)C(O)C(O)C4O)C(C)(C)C3CCC12C` [20(R)-Ginsenoside Rh2], the cell count (compound dose 1 µM) turned out to be 1.1 ± 0.085 and the cell count (compound dose 5 µM) turned out to be 1.16 ± 0.12.
For `O=C(O)CC[N+](=O)[O-]` [3-Nitropropanoic acid], in that order: 0.521 ± 0.017 and 0.48 ± 0.046.
Consider `O=C(CBr)N1CC([N+](=O)[O-])([N+](=O)[O-])C1`, for which the cell count runs as follows: (compound dose 1 µM) 1.03 ± 0.12; (compound dose 5 µM) 0.939 ± 0.025.
As to `C[S+]([O-])/C=C/CCN=C=S` (centres undefined) [Sulforaphene], the cell count (compound dose 1 µM) is 1.17 ± 0.1 and the cell count (compound dose 5 µM) came out at 0.98 ± 0.15.
